Source: patent publication US6365178B1, “Method of making pressure sensitive adhesive matrix patches for transdermal drug delivery using hydrophilic salts of drugs and hydrophobic pressure sensitive adhesive dispersions” (priority 1996, dated 2002)
Structures can show the parent of a compound that is named as a salt.

Experiment: Dissolution of drug substance in liquid adhesive or solvent during matrix preparation
Type: physicochemical
Details: Example 9, DURO-TAK 2516, equivalent to 1% (w/w) HCl salt
Method: Pressure sensitive adhesive matrix systems described herein were prepared as follows. First, the solids content of a water-based or solvent-based adhesive in liquid form was determined by placing a known weight of liquid in a weighed aluminum dish and evaporating the solvents overnight in a 70° C. convection oven. The content of solid adhesive in the liquid was calculated by dividing the adhesive solid weight after drying by the initial total liquid weight. In some cases, the polyisobutylene (PIB) adhesives were prepared from polyisobutylene solids. […] Next, a weighed quantity of adhesive liquid was added to a glass bottle, and the solid adhesive weight was calculated from the known solid fraction of the given adhesive liquid. The drug substance (hydrophilic salt or free drug form) was weighed and added to the adhesive solution in a quantity necessary to achieve a selected dry matrix film composition. The liquid containing the adhesive polymer drug substance was then mixed overnight. […] The cast was dried in a 70° C. convection oven for 15-30 minutes to yield a dried matrix onto which an 0.08 mm thick polyethylene backing film was laminated. These matrix systems were then used to conduct in vitro skin flux experiments as described below.

Compound	Dissolution in organic solvent-based adhesive (HCl)	Dissolution in organic solvent-based adhesive
CCN(CC)CC(=O)Nc1c(C)cccc1C [lidocaine HCl]	did not dissolve completely	
CCN(CC)CC(=O)Nc1c(C)cccc1C [lidocaine free base, lidocaine]		dissolved easily
